# The list does not hold the whole screen: it is rich in T/C values a quarter to a half above the control, in often repeated tests (any T/C) and in doses without a T/C. Other doses and runs of a compound stand elsewhere. T/C gives the treated animals as a percentage of the vehicle group. Schedules are NCI's codes, taken here to give the interval after Q, in days (D) or hours (H), and the number of doses after X. Some T/C values are followed by the survivors on the day toxicity was checked, most often the fifth; without a count, all were alive then. Some doses were run more than once; the results are listed from low to high. Some doses have a count of surviving animals in place of a T/C: the source holds a T/C of zero for them, seemingly a mark for toxic or unscored doses. Some doses without a T/C left all or most animals alive at the check, yet need not have been tolerated: survival well below the control is almost never listed, so the zero probably covers shortened survival too. Survivors were counted at the toxicity check, usually on the fifth day, unless a day is given; later deaths do not show. Where survival is the endpoint, this PubChem deposit counts one and a half times the control or more as active, and values a quarter to a half above the control carry no call in these data; other NCI protocols may use other cut-offs.
# Tested on: BDF1 mice, s.c. Lewis lung carcinoma, T/C %
# Test: NCI In Vivo Anticancer Drug Screen. Data for tumor model Lewis Lung Carcinoma (subcutaneous) in B6D2F1 (BDF1) mice
# Method: The antitumor activity of compounds was measured in mice bearing transplantable tumors. Survival or tumor size were measured and the results are expressed as the measurement made in the treated group (T) divided by the measurement made in the vehicle treated control group (C). The tumor model used in this assay is Lewis Lung Carcinoma (subcutaneous) in B6D2F1 (BDF1) mice
# [1] = T/C endpoint: median survival time, dose: 100.0 mg/kg/injection, schedule: Q01DX009 (ip), vehicle: Klucel (hydroxypropylcellulose) (HPC), higher T/C = longer survival
# [2] = T/C endpoint: mean tumor weight, dose: 500.0 mg/kg/injection, schedule: Q01DX011 (ip), vehicle: carboxymethylcellulose (CMC), higher T/C = larger tumour
# [3] = T/C endpoint: median survival time, dose: 25.0 mg/kg/injection, schedule: Q01DX009 (ip), vehicle: saline, higher T/C = longer survival
smiles,measurement,setting,value
O=NN(CCCl)C(=O)Nc1ccc(I)cc1,survivor count,"T/C endpoint: median survival time, dose: 12.5 mg/kg/injection, schedule: Q01DX009 (ip), vehicle: Klucel (hydroxypropylcellulose) (HPC), higher T/C = longer survival",10 of 10
same,survivor count,"T/C endpoint: median survival time, dose: 25.0 mg/kg/injection, schedule: Q01DX009 (ip), vehicle: Klucel (hydroxypropylcellulose) (HPC), higher T/C = longer survival",10 of 10
same,survivor count,[1],10 of 10
Cc1ccccn1,survivor count,[2],0 of 6
COc1cc(OC)c(OC)cc1/C=C/c1cc[n+](C)c2ccccc12,survivor count,[3],9 of 10
same,survivor count,"T/C endpoint: median survival time, dose: 50.0 mg/kg/injection, schedule: Q01DX009 (ip), vehicle: saline, higher T/C = longer survival",7 of 10 and 9 of 10
same,survivor count,"T/C endpoint: median survival time, dose: 100.0 mg/kg/injection, schedule: Q01DX009 (ip), vehicle: saline, higher T/C = longer survival",0 of 10
same,survivor count,"T/C endpoint: median survival time, dose: 200.0 mg/kg/injection, schedule: Q01DX009 (ip), vehicle: saline, higher T/C = longer survival",0 of 10
NC(Cc1cc(I)c(Oc2ccc(O)c(I)c2)c(I)c1)C(=O)O (configuration not stated),T/C,"T/C endpoint: mean tumor weight, dose: 50.0 micrograms/kg/injection, schedule: Q01DX011 (ip), vehicle: saline, evaluated on day 12, higher T/C = larger tumour",144 % of control
NC(Cc1ccc(N(CCCl)CCCl)cc1)C(=O)O (configuration not stated),survivor count,"T/C endpoint: mean tumor weight, dose: 20.0 mg/kg/injection, schedule: Q01DX011 (ip), vehicle: saline, higher T/C = larger tumour",0 of 6
COc1cc2c(cc1OC)-c1ccc3cc4c(cc3c1N(C)C2)OCO4,survivor count,"T/C endpoint: median survival time, dose: 10.0 mg/kg/injection, schedule: Q01DX009 (ip), vehicle: water, higher T/C = longer survival",9 of 9
COC(COC(N)=O)C1=C(N2CC2)C(=O)C(C)=C(N2CC2)C1=O (configuration not stated),survivor count,"T/C endpoint: median survival time, dose: 0.06 mg/kg/injection, schedule: Q01DX009 (ip), vehicle: Klucel (hydroxypropylcellulose) (HPC), higher T/C = longer survival",10 of 10
same,survivor count,"T/C endpoint: median survival time, dose: 2.0 mg/kg/injection, schedule: Q01DX009 (ip), vehicle: Klucel (hydroxypropylcellulose) (HPC), higher T/C = longer survival",10 of 10
CCC[C@H]1CCCCN1,survivor count,"T/C endpoint: mean tumor weight, dose: 50.0 mg/kg/injection, schedule: Q01DX011 (ip), vehicle: saline, higher T/C = larger tumour",2 of 6
same,survivor count,"T/C endpoint: mean tumor weight, dose: 100.0 mg/kg/injection, schedule: Q01DX011 (ip), vehicle: saline, higher T/C = larger tumour",0 of 6
same,survivor count,"T/C endpoint: mean tumor weight, dose: 200.0 mg/kg/injection, schedule: Q01DX011 (ip), vehicle: saline, higher T/C = larger tumour",0 of 6
O=C1NC2(CCCCC2)C(=O)N1CCN(CCCl)CCCl,survivor count,"T/C endpoint: median survival time, dose: 3.12 mg/kg/injection, schedule: Q01DX009 (ip), vehicle: saline, higher T/C = longer survival",6 of 6
same,T/C,"T/C endpoint: median survival time, dose: 6.0 mg/kg/injection, schedule: Q01DX009 (ip), vehicle: Klucel (hydroxypropylcellulose) (HPC), higher T/C = longer survival",141 % of control
same,survivor count,"T/C endpoint: median survival time, dose: 6.25 mg/kg/injection, schedule: Q01DX009 (ip), vehicle: saline, higher T/C = longer survival",6 of 6
same,survivor count,"T/C endpoint: median survival time, dose: 12.0 mg/kg/injection, schedule: Q01DX009 (ip), vehicle: Klucel (hydroxypropylcellulose) (HPC), higher T/C = longer survival",10 of 10
same,survivor count,"T/C endpoint: median survival time, dose: 12.5 mg/kg/injection, schedule: Q01DX009 (ip), vehicle: saline, higher T/C = longer survival",6 of 6
same,survivor count,"T/C endpoint: median survival time, dose: 24.0 mg/kg/injection, schedule: Q01DX009 (ip), vehicle: Klucel (hydroxypropylcellulose) (HPC), higher T/C = longer survival",10 of 10
same,survivor count,"T/C endpoint: median survival time, dose: 24.0 mg/kg/injection, schedule: Q01DX009 (ip), vehicle: saline, higher T/C = longer survival",7 of 10
same,survivor count,[3],2 of 6 and 6 of 6
CC(=O)C(O)N1C(=O)C=CC1=O (configuration not stated),T/C,"T/C endpoint: median survival time, dose: 0.62 mg/kg/injection, schedule: Q02DX009 (ip), vehicle: saline, higher T/C = longer survival",131 % of control
same,T/C,"T/C endpoint: median survival time, dose: 2.5 mg/kg/injection, schedule: Q01DX009 (ip), vehicle: saline, higher T/C = longer survival",141 % of control
same,survivor count,"T/C endpoint: median survival time, dose: 10.0 mg/kg/injection, schedule: Q01DX009 (ip), vehicle: saline, higher T/C = longer survival",6 of 10 and 7 of 10
same,survivor count,"T/C endpoint: median survival time, dose: 10.0 mg/kg/injection, schedule: Q02DX009 (ip), vehicle: saline, higher T/C = longer survival",10 of 10
CCN(CC)CCCC(C)Nc1c2ccc(Cl)cc2nc2ccc(OC)cc12 (configuration not stated),T/C,"T/C endpoint: median survival time, dose: 8.0 mg/kg/injection, schedule: Q01DX009 (ip), vehicle: saline with Tween-80, higher T/C = longer survival",133 % of control
same,T/C,"T/C endpoint: median survival time, dose: 16.0 mg/kg/injection, schedule: Q01DX009 (ip), vehicle: saline with Tween-80, higher T/C = longer survival",136 % of control
same,survivor count,"T/C endpoint: median survival time, dose: 32.0 mg/kg/injection, schedule: Q01DX009 (ip), vehicle: saline, higher T/C = longer survival",9 of 10
same,survivor count,"T/C endpoint: median survival time, dose: 128.0 mg/kg/injection, schedule: Q01DX009 (ip), vehicle: saline with Tween-80, higher T/C = longer survival",10 of 10
same,survivor count,"T/C endpoint: median survival time, dose: 128.0 mg/kg/injection, schedule: Q01DX009 (ip), vehicle: saline, higher T/C = longer survival",8 of 10
same,survivor count,"T/C endpoint: median survival time, dose: 128.0 mg/kg/injection, schedule: Q01DX009 (ip), vehicle: suspension in saline, higher T/C = longer survival",8 of 10
same,survivor count,"T/C endpoint: median survival time, dose: 256.0 mg/kg/injection, schedule: Q01DX009 (ip), vehicle: saline with Tween-80, higher T/C = longer survival",3 of 10
same,survivor count,"T/C endpoint: median survival time, dose: 256.0 mg/kg/injection, schedule: Q01DX009 (ip), vehicle: saline, higher T/C = longer survival",0 of 10
same,survivor count,"T/C endpoint: median survival time, dose: 256.0 mg/kg/injection, schedule: Q01DX009 (ip), vehicle: suspension in saline, higher T/C = longer survival",0 of 10
C[C@@H]1CC[C@@]2(NC1)O[C@H]1C[C@H]3[C@@H]4CC=C5C[C@@H](O)CC[C@]5(C)[C@H]4CC[C@]3(C)[C@H]1[C@@H]2C,T/C,"T/C endpoint: mean tumor weight, dose: 25.0 mg/kg/injection, schedule: Q01DX011 (ip), vehicle: carboxymethylcellulose (CMC), evaluated on day 12, higher T/C = larger tumour","23, 37, 44, 58 % of control [4 of 6 alive]"
same,T/C,"T/C endpoint: mean tumor weight, dose: 37.5 mg/kg/injection, schedule: Q01DX011 (ip), vehicle: carboxymethylcellulose (CMC), evaluated on day 12, higher T/C = larger tumour",51 and 64 % of control [4 of 6 alive]
same,survivor count,"T/C endpoint: mean tumor weight, dose: 37.5 mg/kg/injection, schedule: Q01DX011 (ip), vehicle: carboxymethylcellulose (CMC), higher T/C = larger tumour",1 of 7 and 3 of 6
COc1ccccc1NC(=O)CSC(N)=O,survivor count,[2],2 of 6
same,survivor count,"T/C endpoint: mean tumor weight, dose: 1000.0 mg/kg/injection, schedule: Q01DX011 (ip), vehicle: carboxymethylcellulose (CMC), higher T/C = larger tumour",0 of 6
O=NN(CCCl)C(=O)NC1CCC(CC2CCC(NC(=O)N(CCCl)N=O)CC2)CC1 (configuration not stated),T/C,"T/C endpoint: median tumor weight (est.), dose: 23.0 mg/kg/injection, schedule: Q01DX001 (ip), vehicle: gum acacia, evaluated on day 20, higher T/C = larger tumour",126 % of control
O=c1cc[nH]c(=O)o1,T/C,"T/C endpoint: median survival time, dose: 3.0 mg/kg/injection, schedule: Q01DX009 (ip), vehicle: water, higher T/C = longer survival",134 % of control
same,T/C,"T/C endpoint: median survival time, dose: 6.0 mg/kg/injection, schedule: Q01DX009 (ip), vehicle: water, higher T/C = longer survival",143 % of control
same,T/C,"T/C endpoint: median survival time, dose: 25.0 mg/kg/injection, schedule: Q01DX009 (ip), vehicle: water, higher T/C = longer survival",142 % of control
same,survivor count,"T/C endpoint: median survival time, dose: 48.0 mg/kg/injection, schedule: Q01DX009 (ip), vehicle: water, higher T/C = longer survival",7 of 10 and 10 of 10
same,survivor count,"T/C endpoint: median survival time, dose: 50.0 mg/kg/injection, schedule: Q01DX008 (ip), vehicle: water, higher T/C = longer survival",10 of 10
same,survivor count,"T/C endpoint: median survival time, dose: 50.0 mg/kg/injection, schedule: Q01DX009 (ip), vehicle: water, higher T/C = longer survival",6 of 10 and 10 of 10
same,survivor count,"T/C endpoint: median survival time, dose: 100.0 mg/kg/injection, schedule: Q01DX008 (ip), vehicle: water, higher T/C = longer survival",4 of 10
same,survivor count,"T/C endpoint: median survival time, dose: 100.0 mg/kg/injection, schedule: Q01DX009 (ip), vehicle: water, higher T/C = longer survival",0 of 10
CCNC1=C(N2CC2)C(=O)C(NCC)=C(N2CC2)C1=O,T/C,"T/C endpoint: median survival time, dose: 1.5 mg/kg/injection, schedule: Q01DX009 (ip), vehicle: saline, higher T/C = longer survival",125 % of control
same,survivor count,"T/C endpoint: median survival time, dose: 3.0 mg/kg/injection, schedule: Q01DX009 (ip), vehicle: saline, higher T/C = longer survival",10 of 10
C=C(C)C12CC(COC(=O)c3ccccc3)C34OC5(OC1C3C1OC1(CO)C(O)C1(O)C(OC(=O)c3ccccc3)C(C)C(C(C)CCCCCCC5O)C14)O2 (configuration not stated),survivor count,"T/C endpoint: median survival time, dose: 15.0 micrograms/kg/injection, schedule: Q01DX009 (ip), vehicle: saline, higher T/C = longer survival",8 of 10
COc1cc2c(cc1Oc1c(Oc3c(O)c(OC)cc4c3C(CC(C)C)N(C)CC4)c(OC)cc3c1C(CC(C)C)N(C)CC3)C(CC(C)C)N(C)CC2 (configuration not stated),survivor count,[1],4 of 10
CS(=O)(=O)OC[C@@H](O)[C@@H](O)COS(C)(=O)=O,T/C,"T/C endpoint: mean tumor weight, dose: 125.0 mg/kg/injection, schedule: Q01DX011 (ip), vehicle: saline, evaluated on day 12, higher T/C = larger tumour",136 % of control
same,T/C,"T/C endpoint: mean tumor weight, dose: 500.0 mg/kg/injection, schedule: Q01DX011 (ip), vehicle: other, evaluated on day 12, higher T/C = larger tumour",147 % of control

# Reference: PubChem BioAssay AID270 (DTP/NCI, 2004)
